{"sequences": {"note": "By UniProt entry, the sequences of proteins in these tests, tags left out.", "UniProt Q13283": "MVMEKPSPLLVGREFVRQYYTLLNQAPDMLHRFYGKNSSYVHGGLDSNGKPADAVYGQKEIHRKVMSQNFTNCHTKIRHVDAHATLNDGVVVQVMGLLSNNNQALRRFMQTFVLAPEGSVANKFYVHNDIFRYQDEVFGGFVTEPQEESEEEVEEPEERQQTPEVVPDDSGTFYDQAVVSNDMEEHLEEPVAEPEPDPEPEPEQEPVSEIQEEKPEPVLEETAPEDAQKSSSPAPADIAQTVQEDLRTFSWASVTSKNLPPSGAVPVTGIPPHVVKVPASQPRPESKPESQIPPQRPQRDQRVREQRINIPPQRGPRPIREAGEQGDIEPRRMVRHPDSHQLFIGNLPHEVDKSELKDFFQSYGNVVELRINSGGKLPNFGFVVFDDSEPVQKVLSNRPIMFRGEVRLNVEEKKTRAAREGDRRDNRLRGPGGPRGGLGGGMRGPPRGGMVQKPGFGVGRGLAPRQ"}, "source": "paper PMC4967826", "about": "“Combined structural, biochemical and cellular evidence demonstrates that both FGDF motifs in alphavirus nsP3 are required for efficient replication” (Open Biology, 2016)", "target": "EGFP fused with full-length CHIKV nsP3 (EGFP-nsP3CHIKV), WT (chikungunya virus (CHIKV LR2006-OPY1)) (UniProt Q5XXP4)", "assay": "co-IP", "note": "Results are given in words; binding and its absence hold for the method and conditions named. In cells and extracts the contact can be indirect. Binding calls can cover weak binding; strength is not graded here.", "data": [{"substance": "G3BP-1 (endogenous, HEK293 cells) (from UniProt Q13283 1-466)", "values": [{"measurement": "binding", "result": "binds"}]}]}
